# Results of single-concentration screens

Data taken from ChEMBL document CHEMBL3988442, “University of Dundee, Small-Polar-MMV Screening Library” (2021).

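Whole-parasite assay of Trypanosoma brucei over 72 hours; the read-out is not stated. Tested at 30 µM. The record gives no direction; compounds that gave an IC50 in retests scored well above the rest, so higher reads as stronger inhibition. Values scatter widely below zero; nearly all retest evidence comes from the higher of the two concentrations used. Size under these conditions: about 64,000 compounds, about 940 of them at 50% or above in at least one test.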

Each number is a percent effect as filed.
The controls that fix the scale are not given in the record; negative values are as filed.
The compounds are a random part of those screened.

| compound | Percent Effect |
|---|---|
| `O=C(O)C(F)(F)F.[H][C@]12CC[C@@]3(N=C(C)N(CC4CC4)C3=O)[C@@]1([H])CN(Cc1ccc(C)cc1)C2` | -56.64 |
| `CC(O)CN1CCN(Cc2csc(-c3cnn(C)c3)n2)CC1` (centres unmarked) | 6.376 |
| `COc1ccc(CNC(=O)Nc2cccnc2N2CCCC2)cc1` | -33.31 |
| `CN(Cc1ccco1)C(=O)CN1CCCC1c1cccs1` (centres unmarked) | 1.537 |
| `Nc1nc(CN2CCCC(Cn3cncn3)C2)nc2ccccc12` (centres unmarked) | 14.55 |
| `[H][C@@]12CCN(Cc3cccnc3)C(=O)[C@@]1([H])CN(Cc1ccoc1)C2` | -1.961 |
| `Cc1noc(CN(C)C(=O)CCn2cnc3ccccc32)n1` | -33.71 |
| `Cc1ccc(C(=O)NCCCN(C(C)C)S(C)(=O)=O)c(=O)[nH]1` | -4.599 |
| `[H][C@@]12CCN(CC3CCC3)C[C@]1(C(=O)N1CCOCC1)CCO2` | 1.428 |
| `Cc1cc(CN2CCN(C(=O)NC(C)c3cccnc3)CC2)on1` (centres unmarked) | 2.773 |
| `O=C(O)C(F)(F)F.[H][C@@]12CN(CCOC)C[C@]1([H])[C@@H](OC)CCN2C(=O)Cc1ccsc1` | 13.92 |
| `CC(Cn1cccn1)NC(=O)Nc1nccs1` (centres unmarked) | -29.2 |
| `[H][C@@]12CS(=O)(=O)C[C@]1([H])N(Cc1ccc(C)c(C)c1)CCN2C(=O)C1CCC1` | -34.9 |
| `C=C(C)COc1ccccc1CNCCc1cc(O)nc(C)n1` | -56.24 |
| `O=C(O)C(F)(F)F.O=C(O)C(F)(F)F.O=C(O)C(F)(F)F.[H][C@]12COC[C@H](N3CCN(C)CC3)[C@@]1([H])CN(Cc1cc(C)cc(C)c1)C2` | 14.2 |
| `Cn1nc(Cn2ccnc2)c2c1CN(Cc1ccoc1)C2.O=C(O)C(F)(F)F.O=C(O)C(F)(F)F` | -70 |
| `CCc1nc2n(n1)CC(NCc1nc(Cc3ccccc3)no1)CC2` (centres unmarked) | -13.37 |
| `[H][C@]12CC[C@]([H])(CN(C3CCOCC3)C1)N(Cc1cscn1)C2=O` | 3.089 |
| `Cc1c(C)n(-c2ccccn2)c2nc3c(c(N)c12)CCCC3` | 65.81 |
| `CN(Cc1nnc(C2CC2)n1C)C1CCN(CCc2cnn(C)c2)C1` (centres unmarked) | -22.53 |
| `Cc1cc(C(=O)N2CCCCC2c2nc3cc(F)ccc3[nH]2)no1` (centres unmarked) | -52.88 |
| `CC(C)c1n[nH]c(C2CN(C(=O)Cn3ccccc3=O)CCO2)n1` (centres unmarked) | 9.582 |
| `[H][C@@]12CCN(c3ncccn3)C[C@]1(C(=O)NCCc1ccccn1)CCO2` | 5.845 |
| `Cc1cccc(C)c1Oc1ncccc1CNC(=O)C1(C)CCCNC1` (centres unmarked) | -14.54 |
| `O=C(CN1CCCC(O)C1)NC(=O)NCc1cccs1` (centres unmarked) | -30.59 |
| `Cc1nc(C)n(C2CCCN(C(=O)CCCc3ccccn3)C2)n1` (centres unmarked) | -12.48 |
| `COCCC(=O)N1CCCC1c1csc(Nc2ncccn2)n1` (centres unmarked) | 13.01 |
| `CCOc1ncccc1CNC(=O)Nc1ccc(N(C)C)nc1` | -10.18 |
| `CN1CC(=O)N(c2ccccc2)CC12CCN(Cc1nccs1)C2.O=C(O)C(F)(F)F.O=C(O)C(F)(F)F` (centres unmarked) | -28.63 |
| `Cc1nc(-n2nc(-c3cccs3)cc2N)[nH]c(=O)c1C` | 6.214 |
| `CCN1C(=O)C2(CCN(CCN(C)C)CC2)c2ccccc21.O=C(O)C(F)(F)F.O=C(O)C(F)(F)F` | -1.271 |
| `CC1CCc2nc(NS(=O)(=O)c3cnn(C)c3)sc2C1` (centres unmarked) | -24.52 |
| `CN(CCCNC(=O)c1ccc(C#N)cc1)CC(F)(F)F` | -32.05 |
| `CCOCC1CN(S(C)(=O)=O)Cc2cnn(CC3CCOCC3)c21.O=C(O)C(F)(F)F` (centres unmarked) | 6.412 |
| `Cc1nn(C)c(C)c1CC(C)NC(=O)NCc1ccn(C(C)C)n1` (centres unmarked) | -18.78 |
| `COc1ccc(C2CCCN2C(=O)NCCn2ccnc2)cc1` (centres unmarked) | -4.129 |
| `CCC(C)NC(=O)c1coc(COc2cccc(F)c2)n1` (centres unmarked) | -92.88 |
| `Cc1nnc(C(C)Nc2cccc(COCCOC(C)C)c2)o1` (centres unmarked) | -26.44 |
| `NC(=O)Nc1cc(F)ccc1SCC(F)F` | -110.5 |
| `N#Cc1ccc(CNC(=O)NC2CCN(CC(F)(F)F)C2)cc1` (centres unmarked) | 9.409 |
| `Cc1ccnc(C2CCCN2C(=O)c2cnccn2)n1` (centres unmarked) | 10.18 |
| `Cn1cnc2cc(CCC(=O)Nc3nc[nH]n3)ccc21` | -8.016 |
| `Cn1ncc2c(=O)[nH]c(CN3CCCC3c3ccccc3Cl)nc21` (centres unmarked) | -7.707 |
| `O=C1Nc2ccccc2C1C1CCN(C(=O)C2CC2)CC1` (centres unmarked) | -15.81 |
| `COc1ccccc1CNC(=O)c1ccccc1-n1cnc(CN)c1` | -14.05 |
| `O=C1CN(Cc2ccc(-c3ccccc3C(=O)O)cc2)CCN1` | -22.69 |
| `Cc1ccoc1-c1nnc(CNCCn2cccn2)o1` | -23.77 |
| `Fc1ccc(OCCCN2CCCC(Cn3cncn3)C2)cc1` (centres unmarked) | -3.468 |
| `CN(C)c1ccc(C2CC(=O)Nc3c2cnn3Cc2ccco2)cc1` (centres unmarked) | 10.15 |
| `CC(C)(NC(=O)c1scnc1Cl)c1ccccc1` | -22.17 |
| `Cc1ccccc1C1(CNC(=O)NCCc2nnc3n2CCC3)CC1` | 13.88 |
| `O=C(c1ccccc1)C1CCN(C(=O)CC2COCCN2)CC1` (centres unmarked) | -45.41 |
| `COc1ccccc1OCc1cc(C(=O)N2CC=CC2C(C)C)n[nH]1` (centres unmarked) | -4.484 |
| `CN(Cc1cnccn1)S(=O)(=O)c1ccc(C(F)(F)F)nc1` | -33.97 |
| `Cc1nc(C2CCCNC2)cc(N(C)CCc2ccccc2)n1` (centres unmarked) | 33.93 |
| `O=C(Cn1ccc(=O)[nH]c1=O)NCC1Cc2ccccc2O1` (centres unmarked) | -15.17 |
| `O=C(Cc1c(F)cccc1Cl)NC1CCCCNC1=O` (centres unmarked) | -76.89 |
| `Cc1cc(NC(=O)CN2CCn3c(nnc3C(C)C)C2)on1` | -7.274 |
| `COCC(=O)N1Cc2cnc(Cc3ccc(OC)cc3)nc2C1` | -42.99 |
| `[H][C@]12CCN(C(C)=O)CC[C@@]1([H])S(=O)(=O)N(CC)C2` | 2.891 |
| `COCCN1CCN(CC(=O)NC2(C#N)CCCC2)CC1` | -5.668 |
| `CC[C@@H](C)[C@@H](N)C(=O)Nc1cccc(-c2cnc(N(C)CCO)nc2)c1` | -10.78 |
| `CCN(C)S(=O)(=O)NCC1CCN(Cc2ccccc2C)CC1` | -5.086 |
| `O=C(O)C(F)(F)F.[H][C@@]12CN(C(=O)c3ccsc3)C[C@]1([H])C(=O)N(Cc1cccc(C)n1)C2` | 9.079 |
| `CN(Cc1cc(C2CC2)on1)C(=O)CN1CC(c2ccccc2)CC1=O` (centres unmarked) | -10.17 |
| `COCCN1CCN(S(=O)(=O)C2CC2)Cc2ccc(C)nc21.O=C(O)C(F)(F)F` | -34.37 |
| `Cc1noc(CCNC(=O)c2ccc(Br)c(S(=O)(=O)N(C)C)c2)n1` | -79.48 |
| `CNC(=O)NC(=O)CCSCc1cc(Cl)cc2cccnc12` | -18.34 |
| `c1ccc2sc(CN3CCOC(Cn4cccn4)C3)nc2c1` (centres unmarked) | -44.94 |
| `Cn1nnc2c1C(COCc1ccccn1)CN(C(=O)c1ccsc1)C2.O=C(O)C(F)(F)F` (centres unmarked) | 1.121 |
| `CCNC(=O)c1cnc(Cc2ccc(F)cc2)s1` | 3.769 |
| `Cn1nc(C2CCCN(Cc3ccsc3)C2)c2nccnc21` (centres unmarked) | 1.251 |
| `CN(C)C(Cn1ccnc1-c1ccccc1C(=O)O)c1ccccc1Cl` (centres unmarked) | -9.506 |
| `CCc1cc(NCCNC(C)=O)nc(N2CCCC2)n1` | -29.39 |
| `C[C@H]1CN(C(=O)c2ccoc2)C[C@@]12CCN(CCN(C)C)C2=O.O=C(O)C(F)(F)F` | -77.54 |
| `CCCc1cc(C(=O)N2CCC3(CCCN(CCOC)C3=O)C2)cs1` (centres unmarked) | -126.3 |
| `CC(C)(C)c1cnc(CN2CCC[C@H]2CO)o1` | 19.26 |
| `COCCCN1CC2(CCCCN2C(=O)c2ccsc2)CC1=O` (centres unmarked) | 0.6508 |
| `O=C(O)C(F)(F)F.[H][C@@]12CCN(CC3CCOCC3)[C@@]1([H])CCN2C(=O)c1cccn1C` | -46.25 |
| `CCC(C)NC(=O)CS(=O)(=O)Cc1cc(C)ccc1C` (centres unmarked) | -34.82 |
| `O=S(=O)(N1CCOCC1)N1CCCC(c2ccccn2)C1` (centres unmarked) | 5.129 |
| `O=C(O)C(F)(F)F.O=C(O)C(F)(F)F.[H][C@@]12CC(COc3ccccn3)C[C@@]1([H])N(Cc1csc(C)n1)CCO2` (some centres unmarked) | -42.66 |
| `CC(=O)N1CC(C(=O)Nc2cccc(OC(F)F)c2)C1` | 16.73 |
| `[H][C@@]12CCCO[C@]1([H])[C@@H](N(C)Cc1cncnc1)CN2Cc1ccco1` | -24.39 |
| `C[C@H](CCO)NS(=O)(=O)c1ccc(Br)cn1` | -18.36 |
| `CC(C)(C)n1nc(C(=O)NC2CCN(CC(N)=O)CC2)cc1C1CC1` | -51.5 |
| `CCOc1cc(C(=O)NS(=O)(=O)c2cccc(C#N)c2)ccc1OC` | -20.2 |
| `[H][C@@]12CN(CC3CC3)C[C@]1([H])[C@H](OC)CCN2c1ncc(F)cn1` | -22.06 |
| `Cc1ccc(C(=O)N2CCC3(CC2)c2ccccc2[C@@H](N)[C@@H]3O)c(=O)[nH]1` | 29.88 |
| `Cc1cnn(C2CCCN(C(=O)CCCn3ccnc3C)C2)c1` (centres unmarked) | -7.165 |

11 of the entries, repeated:

compound	Percent Effect
Cc1nc(C)n(C2CCCN(C(=O)CCCc3ccccn3)C2)n1 (centres unmarked)	-12.48
CN(CCCNC(=O)c1ccc(C#N)cc1)CC(F)(F)F	-32.05
O=C(O)C(F)(F)F.[H][C@@]12CN(CCOC)C[C@]1([H])[C@@H](OC)CCN2C(=O)Cc1ccsc1	13.92
O=C1CN(Cc2ccc(-c3ccccc3C(=O)O)cc2)CCN1	-22.69
Cc1cccc(C)c1Oc1ncccc1CNC(=O)C1(C)CCCNC1 (centres unmarked)	-14.54
O=S(=O)(N1CCOCC1)N1CCCC(c2ccccn2)C1 (centres unmarked)	5.129
Cc1c(C)n(-c2ccccn2)c2nc3c(c(N)c12)CCCC3	65.81
Cc1nnc(C(C)Nc2cccc(COCCOC(C)C)c2)o1 (centres unmarked)	-26.44
Fc1ccc(OCCCN2CCCC(Cn3cncn3)C2)cc1 (centres unmarked)	-3.468
CCN(C)S(=O)(=O)NCC1CCN(Cc2ccccc2C)CC1	-5.086
CCc1cc(NCCNC(C)=O)nc(N2CCCC2)n1	-29.39